# From PubChem BioAssay AID1347423 (Functional Genomics Laboratory (NCATS/FGL), 2020)
# About 210 (0.4%) of roughly 52,000 sequences were called active.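 Rule for the calls: active = gene whose silencing raises cell survival under the drug, median off-target-corrected z-score across its silencing RNAs 2 or more; inactive = the rest.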 The list shows a part of the results.
# Assay: Resistance to Poly (ADP-Ribose) Polymerase inhibitor: Gene Identification via Genome-wide siRNA Screen
# Settings: mouse BRCA2 R2336H ES cells, olaparib, CellTiter-Glo viability; hits give high values
# Summary of the method: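 Mouse BRCA2 R2336H ES cells were reverse-transfected with siRNA (20 nM final), treated at 48 h with 500 nM olaparib, and read by CellTiter-Glo after 72 h. Scores: MAD-based z per siRNA, median per gene, seed off-target correction.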
row,Sequence,z-score
1,GCUGAUUCUUCACUUUGUGTT against 2310005O14Rik,inactive: 0.15
2,GCUGGUGGAUCAGAUUGAGTT against 5430431G03Rik,inactive: 1.51
3,GGCUUGUUACCACAUGCUGTT against BC032204,inactive: 0.664
4,CCUAGAGAUUGGUAUGUACTT against Gm644,inactive: 1.33
5,GGAAAAUGUUCAUCUCUCATT against Oact2,inactive: 0.622
6,GGAUGACAGUUGAAUCGCCTT against Sepm,inactive: 0.663
7,GGCUCUGAAAAUUGAACACTT against 4921537D05Rik,inactive: -1.94
8,GGGAUCAUAAAGAUAACUUTT against Fasn,inactive: 0.581
9,GGGACUAAUUCCAAUUUCATT against Pomt1,inactive: -1.85
10,GGCAGUGGAGCUGGACAAATT against Nkx2-5,inactive: -1.98
11,GCGGGUCAUAAAUCUGAUUTT against Aldh3a1,inactive: 0.0646
12,GGCCAAGUUUGACAAGGAATT against Nap1l5,inactive: 3.05
13,GCGUGUAUUCCACUCAUAATT against 2900045N06Rik,inactive: -0.759
14,AACCAUUCAGGAGAAAGCCTT against Sprrl3,inactive: -0.332
15,CCGAAAGAACAAACAAAGGTT against 4930583H14Rik,inactive: 0.902
16,GGUAGAACAUGAAGUCUCUTT against Siat7d,inactive: 0.254
17,GGAUCAUUAACCCUGAAAUTT against Dscam,inactive: -0.543
18,GCCAACUAUACAUCUUAUCTT against Sftpa1,inactive: -0.189
19,GGAGAACUUUGAUAUGGAGTT against Cuedc2,inactive: -0.00918
20,GGAUUACUGAUCUCCAAAATT against Cenpe,inactive: -0.448
21,GCAGACUCCAUGCAAAACUTT against Slc5a8,inactive: 0.698
22,GGACUAUCUAGCAUAUACUTT against E130006D01Rik,inactive: -0.253
23,GGCCUAAUCGAAAUGUGGCTT against Trim12,inactive: 2.13
24,CCAGGUAUUCUGAUAUCAGTT against Cd209d,inactive: 3.16
25,GGGAAAGGAAGUUGUUUUGTT against Epha2,inactive: -0.169
26,GCCUUGAUCCUACUGUAACTT against Amigo3,inactive: 1.32

row,Sequence,z-score
1,GGUGCUUCUAAACUCAGAGTT against Spg20,inactive: -0.0377
2,AUUGUAGCAGUGAAUUGGATT against Pdia6,inactive: -0.255
3,CCCUCGGUGCCUAAUAAAUTT against Hadh2,inactive: 0.14
4,CCUACUCAAAUGAAGUUGUTT against Pctk2,inactive: -0.346
5,GCACAAUCCGGUCAACAUGTT against Zbp1,inactive: -1.11
6,GGAGAAAGACAUCAGAAAGTT against CRAD-L,inactive: 0.666
7,UGUGGUCUUAGAAUCUAGCTT against Tdpoz3,inactive: 1.88
8,GGGUACAUUACACUCAGGATT against 2610204G22Rik,inactive: -0.179
9,GCUAUCAUGCAAGAUGGCATT against 0610025P10Rik,inactive: 0.0123
10,GCACAACUUUGAGGUGUGGTT against Plekha4,inactive: -0.344
11,GCUCAACUUGGAAUUGGAGTT against B130017I01Rik,inactive: 0.644
12,GCAGCUAGCAUAUAAUAACTT against Il21r,inactive: -0.349
13,GGGAAUGUCUGAAAGUCCCTT against 2410127E18Rik,inactive: 0.245
14,GCUUAAUUUCAUUUCAAGGTT against B3gnt5,inactive: 0.00424
15,GCUAAAGGAGUAUAAUAGUTT against A130066N16Rik,inactive: 1.06
16,GGUGAACAAGAAAGAAGUCTT against Rpl3,inactive: -2.46
17,GGCUAAAUCUCACACUCCATT against 2010001M09Rik,inactive: 0.462
18,GGCCAGAUUAACACUUACUTT against Eif3s3,inactive: -1.04
19,GCUCUUUCAUGUUAUUGAUTT against Dicer1,inactive: 1.36
20,CGUAUUCCCAAAUGUGAUGTT against Pcbp3,inactive: -0.237
21,GCUCAUCGUACCAUUUUCUTT against 9230105E10Rik,inactive: 0.734
22,GCAGCAGAAUGCUAGAAAATT against Mtrf1,inactive: -1.07
23,GGCCUUUUCUCAUCUCUGGTT against Igfals,inactive: -0.0297
24,GCCUUAGAGCUUGUAACUATT against Nbl1,inactive: -0.301
25,UGGUUGUAUUAUUCUGUUGTT against Defb38,inactive: 1.33
26,GGCUUUCCGCGCUAUUGAUTT against 5330414D10Rik,inactive: 0.113

# Part of the list above, as tab-separated lines.
row	Sequence	z-score
12	GCAGCUAGCAUAUAAUAACTT against Il21r	inactive: -0.349
13	GGGAAUGUCUGAAAGUCCCTT against 2410127E18Rik	inactive: 0.245
14	GCUUAAUUUCAUUUCAAGGTT against B3gnt5	inactive: 0.00424
15	GCUAAAGGAGUAUAAUAGUTT against A130066N16Rik	inactive: 1.06
16	GGUGAACAAGAAAGAAGUCTT against Rpl3	inactive: -2.46
17	GGCUAAAUCUCACACUCCATT against 2010001M09Rik	inactive: 0.462
18	GGCCAGAUUAACACUUACUTT against Eif3s3	inactive: -1.04
19	GCUCUUUCAUGUUAUUGAUTT against Dicer1	inactive: 1.36
20	CGUAUUCCCAAAUGUGAUGTT against Pcbp3	inactive: -0.237
21	GCUCAUCGUACCAUUUUCUTT against 9230105E10Rik	inactive: 0.734
22	GCAGCAGAAUGCUAGAAAATT against Mtrf1	inactive: -1.07
23	GGCCUUUUCUCAUCUCUGGTT against Igfals	inactive: -0.0297
24	GCCUUAGAGCUUGUAACUATT against Nbl1	inactive: -0.301
25	UGGUUGUAUUAUUCUGUUGTT against Defb38	inactive: 1.33
26	GGCUUUCCGCGCUAUUGAUTT against 5330414D10Rik	inactive: 0.113
